Test results as given in patent publication US12564589B2, “Methods for treating cancer, reducing side effects of cancer treatment, and preventing the recurrence of cancer” (Florida State University Research Foundation, Inc., priority 2024, dated 2026).
At least one structure is not confirmed: it was looked up by name or label, or the drawing left a doubt.

How the values were obtained:
[1] = tested on: patient derived H3.3K27M mutant DIPG cells; test: Cell survival assay in patient derived H3.3K27M mutant DIPG cells; format: cell-based, human; settings: also synergistic with ionizing radiation
[2] = tested on: glioblastoma cells carrying WT H3.3; test: Cell survival assay in pediatric glioblastoma cells carrying WT H3.3; format: cell-based, human
Procedure: FIGS. 4A-4G show H3.3KD and pediatric patient-derived H3.3 mutant glioblastoma cells can be selectively eliminated by NHEJ inhibition in vitro and in vivo. FIG. 4A: H3.3KD cells are sensitive to NHEJ inhibition. H3.3KD cells are sensitive to inhibition of alt-NHEJ using the PARP inhibitor (PARPi) Olaparib (OLA) and c-NHEJ using the DNA-PKcs inhibitor NU7441, both at 1 μM. […] For this assay, equal number of cells were seeded in triplicate at low density in multi-well plates and treated with the indicated drugs with or without radiation. Surviving cells were dissociated and counted one week later, before the untreated cells reached confluency. FIG. 4B: Pediatric patient-derived H3.3 mutant glioblastoma cells are sensitive to Olaparib in vitro. […]
Except for the viability assays performed in FIGS. 1A-1G that were scored by flow cytometry using the violet fluorescent Live/Dead cell staining kit (Invitrogen) following the manufacturer's instructions, all the remaining viability assays were performed as following. […] The surviving cells were then counted on a Beckman Coulter particle and size analyzer, typically set to count all particles with a size greater than 8 μm (but was adjusted as needed based on cell size for different cell types). Significant differences between treatments was determined using ANOVA and Tukey Kramer test.

[3] = tested on: DIPG; settings: used individually or with radiation; cited from earlier work

SMILES	elimination of patient derived cancer cells carrying the H3 K27M mutation by HAT inhibitors [1]	effect of HAT inhibitors on cells carrying wild type H3 or H3.3 G34V [2]	efficacy against DIPG in earlier testing [3]
COc1cc(/C=C/C(=O)CC(=O)/C=C/c2ccc(O)c(OC)c2)ccc1O [Curcumin]	specifically eliminate	sparing the majority	
C=C(C)[C@@H](CC=C(C)C)C[C@@]12C[C@@H](CC=C(C)C)C(C)(C)[C@@](CC=C(C)C)(C(=O)C(C(=O)c3ccc(O)c(O)c3)=C1O)C2=O [Garcinol]	specifically eliminate	sparing the majority	
Cn1nnc2c(C(N)=O)ncn2c1=O [Temozolomide]			not found to be effective
